Hit rate of the full screen: of about 53,000 sequences, about 3,700 (7%) were called active.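 Rule for the calls: active = gene knockdowns whose robust z-score for IL-1 alpha signal is at least 2 or at most -2, so actives lie on both sides; inactive = the rest.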 Some of the results follow.

The nature of the test: Components of the Cytosolic LPS Sensing Pathway: Gene Identification via Genome-wide siRNA Screen. The conditions noted are these: RAW264.7 macrophages, IL-1a HTRF, actives lie on both sides, screened at 100 nM (by protocol), cells primed 5 h with Pam3CSK4 first. The source says:
Non-canonical inflammasome activation by cytosolic LPS is a critical component of the host response to Gram-negative bacterial infection, however we lack a comprehensive understanding of the cellular processes that control this pathway. Here we describe a genome-wide siRNA screen to identify genes regulating the mouse macrophage IL-1 alpha response to cytosolic LPS.
RAW264.7 cells were maintained in complete DMEM media, comprising DMEM with 4.5 g/L glucose, 10% FBS (Gemini Bio-Products, West Sacramento, CA), 2 mM Glutamine (Lonza) and 20 mM HEPES (Lonza), hereafter complete DMEM.
The RNAi screen was conducted in 384-well format using the Ambion Silencer Mouse Genome siRNA Library (#4391425), which consists of three unique, nonoverlapping, nonpooled siRNAs for each of 17,000 gene targets. siRNA reagents ([…]) were stamped into 384-well white flat-bottom microplates (Corning, 3570) using a Velocity11 VPrep liquid handling system (Agilent) integrated into a BioCel robotic platform (Agilent) in columns 1-22, leaving columns 23-24 empty for negative (Ambion, Negative control #1) and positive (mouse Casp4) controls, respectively. The median value of each plate's negative control column was used to normalize sample wells, and the positive control was used to assess transfection efficiency and assay performance.
Lipofectamine RNAiMAX Transfection Reagent ([…]; Invitrogen) was added in […] serum-free, antibiotic-free media to plate wells using a Thermo Scientific Matrix WellMate and Microplate Stacker. Plates were incubated for 45 min at room temperature to allow for the sufficient formation of siRNA-lipid complexes. Cells were seeded at a density of 1x10^4 cells per well in 20 microL media containing 20% (vol/vol) FBS without antibiotics. The final concentration of siRNA in each well was 100 nM. Cells were cultured for 48h at 37 degrees C in 5% CO2 before addition of […] of TLR ligand Pam3CSK4 for 5 hours. The medium was then removed, replaced with […] growth media and cell were transfected with […] of LipidA and TransIT-TKO (Mirus) for 24 hour. At the end of the LipidA treatment, […] of supernatant was transferred to a 384 Greiner Bio-one non-binding low volume plate and […] of IL-1a HTRF reagent (Cisbio, 62MIL1APEH) was added and incubated at room temperature overnight. The plates were read on an EnVision plate reader (PerkinElmer). Cell viability was measured by adding 20ul Cell Titer Glo to the original plate and running a luminescence read on the EnVision. The quantified IL-1a signal for each siRNA gene-targeted well was divided by the median of the negative control wells and multiplied by 100 to achieve a negative control normalized value for each well/siRNA. This normalized value was then used to generate a robust z-score by first taking the log of each value and then by subtracting the median and dividing by the […].
With GGUCUUUGAAUGGAACAAUTT against Aldh7a1, the z-score was inactive: -1.04.

For the sequence GGUGCAGACCUCUGACAAATT against Pdlim7, the z-score was inactive: 1.18.

Consider GCGUAAAACUUCAAGAGCUTT against Ccdc120, for which the z-score was inactive: 0.268.

As to GGAGUUCGCACAGAAAUUCTT against Dhdh, the z-score was inactive: -0.619.

Turning to GCACCAUGAAUGGAGAUGATT against Prl2c5, the z-score is active: -2.56.

GGAAUUCAGUGCCUUAAAATT against Pgf: the z-score is inactive: -0.294.

Take GGUUGUGAACAGUCCACCCTT against Ski: the z-score is inactive: 0.461.

With “GAGAUGCCAUGACAAUGGGTT against 4931422A03Rik”, the z-score is inactive: -1.11.

Consider GGACAGGUGAAGAUAAGUATT against Mug2, for which the z-score is inactive: -0.704.

GCACAACCCUAGGCUAUCCTT against Tssk5: the z-score is inactive: 0.953.

In the case of GGAGUCUCUGUCAUGUGAUTT against Tlr2, the z-score was inactive: -0.33.

For the sequence “GGCACACACAUCAAAAGGATT against A530021J07Rik”, the z-score was active: -2.63.

“GCAUCUAUGGUGUUUCCUGTT against 9230106D20Rik”: the z-score is inactive: -0.136.

GGAUAUCAUCAUGUCUUUCTT against Otop1: the z-score was inactive: 1.29.

For CGGACACACAGUUGAUCCGTT against Cct6b, the z-score was active: -2.15.

With GGUGGCCCAGUCUAAAGAATT against R74862, the z-score was inactive: 0.872.

Take GGAGAAGCAUAAAACAGUUTT against Ikzf5: the z-score is inactive: -0.547.

CCAAAUAAUUUCAGGGAAUTT against Vamp1: the z-score was inactive: -0.467.

“GGCCUUUUCUCAAACAAACTT against 9330154K18Rik”: the z-score is inactive: -1.93.

As to GGCCUUUACAUCAAUAUCATT against Zfp879, the z-score was inactive: -0.0241.

In the case of GGUAUAAACUAUUUGUACCTT against Gnb4, the z-score was inactive: 0.221.

Consider GGUUAUUUGGUCCUCGUAGTT against Ccs, for which the z-score was inactive: -0.707.

For the sequence GGCAUGAGAACUAGUCUGCTT against Duox2, the z-score is inactive: -0.843.

With CCACAACCCUUGAGGAUGUTT against Samd11, the z-score was inactive: -0.142.

Take GGCUGUAUCCUGACAGCAATT against Olfr231: the z-score was inactive: 0.213.

Take CCUUCCUACAACAAGUGUGTT against Galnt1: the z-score was active: 2.02.

For GCAUUGAAGAUCGAACACGTT against Kdm2a, the z-score is inactive: 0.536.

In the case of GGCAUAGGAAACACCAAGATT against Xdh, the z-score was inactive: -0.307.

For GGUUUUAUCUCUUGUGCCCTT against Myl10, the z-score was inactive: -0.565.

CGAACUUCUUAAUAAACAGTT against Slc7a2: the z-score was inactive: -0.0413.

Take GGAGUUCAUUCUGAAUCAGTT against Drosha: the z-score was inactive: -0.548.

As for GGGACAUUUCCAUCCUUUUTT against Prdx6b, the z-score is inactive: -1.28.

Take GGAGUGUUUCCUGUCUCCUTT against Rad54l: the z-score was inactive: -0.975.

GGGCAUACAUGAUCCUCCUTT against Gpr39: the z-score was inactive: 0.331.

For GGAUUGCUCCGAGAACAUCTT against Spsb2, the z-score was inactive: -1.31.

As to GGAUUGCUUCACCACAUGUTT against Fes, the z-score was active: 2.44.

For “GGAAAGUACCCUAGGAGUUTT against 4921509C19Rik”, the z-score was inactive: -1.6.

On to GGCCCUAGCACUUUUUGUCTT against Ush2a, for which the z-score is inactive: -0.101.

In the case of GCUCUACAUGAAAACACUGTT against Gpat4, the z-score was inactive: -0.28.

CCUUAGCUUACCUAGUGGUTT against Tssc4: the z-score was inactive: -0.653.

For the sequence “GGUCGGUUCUCUUCACUGATT against 1700025G04Rik”, the z-score is inactive: -0.827.

On to CCCAUCAAAAGAAUCCACATT against Snrnp70, for which the z-score is active: -2.51.

Turning to GGGAACAAGGAACUCAAAGTT against Cadm1, the z-score was inactive: 1.69.

For the sequence GGUCGUGCGAUCCACAGAUTT against Vangl2, the z-score was inactive: -0.44.

On to GGAAAACUCUCUGCAUUAUTT against Stx7, for which the z-score is inactive: -0.254.

On to GGACAAUUAUGAGAUGCACTT against Med22, for which the z-score was inactive: -0.861.

For GGGCUUCUGAAGAAGAUGATT against Cdc25b, the z-score was inactive: -1.21.

Regarding GGCAAUUAAUUGACAGUUATT against Myf5, the z-score was inactive: 1.66.

For GCAAGGAGUUUAUGUGAGUTT against Olfr170, the z-score was inactive: 0.297.

As to CCCUCCGUGUUUUUAAGAUTT against Tbl2, the z-score is inactive: 0.176.

Take GGAGUUUGUGCAGUUUGUGTT against Nfix: the z-score was inactive: -0.414.

With GGCAGGAUAUAACCAUCCUTT against Zscan29, the z-score is inactive: -1.79.

For CCAUAUGGUCAUUAUACCUTT against Ttc19, the z-score was inactive: -0.742.

Regarding GGAUUUUCACAUUGCAUCUTT against Dmrtc1a, the z-score was inactive: 1.49.

Take GGAUGAAAAUCUCUGUCCUTT against Trpa1: the z-score was inactive: 0.604.

Turning to GGAAGUUCGUGUGAAAGUUTT against Uhrf2, the z-score was inactive: 1.43.

“GCCCAUCACAAAUAAACAATT against B230340J04Rik”: the z-score is inactive: -1.17.

Turning to GCUCGGCUUUAGAGACCUATT against Cox19, the z-score was inactive: 0.379.

As to GGAACAAAGAGGUUAAAGGTT against Olfr1448, the z-score is inactive: 0.513.

As to GGAUCUGCCUACACCUACATT against Slc7a14, the z-score is inactive: 0.442.

“GGUUAUUGAUUUGGUGAAGTT against 4930550L24Rik”: the z-score is inactive: 1.03.

In the case of GGUAUUCUUUGAUAAGAUCTT against Ephb1, the z-score was inactive: -0.0305.

Take GGAGUGAUGUCCAUACUGGTT against Leap2: the z-score is active: -2.57.

With CCUCUGCUACUCUUAUUGUTT against Ttn, the z-score was inactive: -0.523.

GGCAAGCACAAUGAUCAUUTT against Trappc11: the z-score is active: -2.36.

Take GGUUCUUUUUGACGGUGGUTT against Rpl14: the z-score was inactive: 0.368.

As for “GGAUCAGCAACAGUCUCCATT against 1700029M20Rik”, the z-score is active: -2.01.

On to GGCGACAUGAAAGAAGGCATT against Klk6, for which the z-score is active: 2.61.

As to GGACUUCUACACCUCGAAATT against Amz2, the z-score is inactive: -1.05.

Take GCAUCACUGUCUAAACUUGTT against Pgk2: the z-score was inactive: -0.324.

For the sequence “GGUUGGAUACUCGUCUUCATT against Olfr421-ps1”, the z-score was inactive: 1.16.

In the case of GUUGACUGUACCCGAUACATT against Mxd3, the z-score was inactive: -0.0552.

As for GCGGAUUUAGUGGCUGGCUTT against Opn5, the z-score was inactive: 0.214.

As to CCAUUUUGAAGCAUAGUACTT against Uba6, the z-score is inactive: -0.142.

For the sequence GGUAAUCACAUCCCAGGUGTT against Olfr370, the z-score is inactive: 0.144.

With GUGAUUGCCAAGAAGUUCUTT against Olfr1033, the z-score was inactive: 1.82.

Turning to CCUUAUAGUCCAGUAUUUUTT against Slf2, the z-score is active: 2.71.

As for GCUCUACGAUGCAGUUUUUTT against Trp53i11, the z-score is inactive: -0.657.

Turning to GGAAAAGAGCAAACUUAUUTT against Shc3, the z-score is inactive: 0.37.

With GGACUUUCUGAUGGACUUGTT against Sapcd1, the z-score was inactive: 1.59.

Consider GGUGUAAGUCGGUAUAUUUTT against Cdkn2aip, for which the z-score was inactive: 0.572.

Turning to GGAUAAACCCUACGUUCUATT against Slc44a4, the z-score is inactive: 0.658.

For CCCUUUGUAGUUACUAAACTT against Zwint, the z-score was inactive: 1.26.

With GGUCUGAAGACAUCCUAGUTT against Pabpc4, the z-score was inactive: 1.83.

For the sequence GGUUUUUAUCGACACUAUCTT against Chrna1, the z-score was inactive: 1.06.

For the sequence GGGAGAGGACGACAUUUACTT against Otx2, the z-score is inactive: 0.645.

Take GGUGGUUCCCAAUUCACCUTT against Htra3: the z-score is inactive: -0.903.

Take CCGUACAUCGAGAAAUACATT against Hal: the z-score is active: 2.36.

On to GGUGUUGAACGAGUGGAUCTT against Gtf3c6, for which the z-score is inactive: 0.481.

On to GCAAGCUGAGCAUUGAUGATT against Csk, for which the z-score is inactive: 0.0106.

Consider GGAGUACGUGCUAGAUAAGTT against Tram1l1, for which the z-score was inactive: -0.302.

As to CCGGGUUCUUUGAAGUGACTT against Selenow, the z-score is inactive: -1.04.

As for GGAUGUGACUUCGAGAGCATT against Cxcr4, the z-score was inactive: -0.491.

As for GGAAUACCUCUACUGACAGTT against Mok, the z-score is inactive: -1.37.

Turning to GGUUGACGAAAUGACUAUATT against Adh4, the z-score is inactive: -0.105.

In the case of GGAACAUGUUAAAAACCCUTT against Ubtf, the z-score is inactive: -1.1.

For GCGCAUGCAACAGAAGUAUTT against Pde4dip, the z-score is inactive: -1.4.

Take CGGCUAAGUUGUGCGAUGUTT against Iffo2: the z-score was inactive: 0.159.

As to GGACACUACGUGCUCAGUATT against Tcl1b5, the z-score is inactive: -0.645.

In the case of CCGCUACCUUAAGCACCUATT against Terf2ip, the z-score is inactive: 0.231.

Consider GCCCUUGGCAUUACUGAGATT against Serpine2, for which the z-score was inactive: 1.56.

For GGAAAUCUCAGAAAUCAAATT against Pmf1, the z-score was inactive: -1.15.

Regarding CGAGAUGUCCCAGAAUCAUTT against Wdr75, the z-score was active: -2.26.

Regarding GCUUGCUCUCUCAGUAGUATT against Olfr133, the z-score is inactive: 0.872.

In the case of GUCAAAAUGACCAAAGAUGTT against Acot2, the z-score was inactive: -0.421.

Regarding CGGCAUCGUCAGCUAUUAATT against Pip5k1b, the z-score was inactive: 0.482.

These data come from PubChem BioAssay AID1508600 (Functional Genomics Laboratory (NCATS/FGL), 2020).
